Assay results: paper PMC11358041
No constants are given. Whether binding was seen depends on the method and setting. In cells and extracts the contact can be indirect. Some entries that bind do so weakly or less than the wild type. Values belong to the molecule of their own block, whether it stands above or below them.

Protein sequences, listed by entry. Tags and fused reporters are not part of them.
UniProt Q8K371: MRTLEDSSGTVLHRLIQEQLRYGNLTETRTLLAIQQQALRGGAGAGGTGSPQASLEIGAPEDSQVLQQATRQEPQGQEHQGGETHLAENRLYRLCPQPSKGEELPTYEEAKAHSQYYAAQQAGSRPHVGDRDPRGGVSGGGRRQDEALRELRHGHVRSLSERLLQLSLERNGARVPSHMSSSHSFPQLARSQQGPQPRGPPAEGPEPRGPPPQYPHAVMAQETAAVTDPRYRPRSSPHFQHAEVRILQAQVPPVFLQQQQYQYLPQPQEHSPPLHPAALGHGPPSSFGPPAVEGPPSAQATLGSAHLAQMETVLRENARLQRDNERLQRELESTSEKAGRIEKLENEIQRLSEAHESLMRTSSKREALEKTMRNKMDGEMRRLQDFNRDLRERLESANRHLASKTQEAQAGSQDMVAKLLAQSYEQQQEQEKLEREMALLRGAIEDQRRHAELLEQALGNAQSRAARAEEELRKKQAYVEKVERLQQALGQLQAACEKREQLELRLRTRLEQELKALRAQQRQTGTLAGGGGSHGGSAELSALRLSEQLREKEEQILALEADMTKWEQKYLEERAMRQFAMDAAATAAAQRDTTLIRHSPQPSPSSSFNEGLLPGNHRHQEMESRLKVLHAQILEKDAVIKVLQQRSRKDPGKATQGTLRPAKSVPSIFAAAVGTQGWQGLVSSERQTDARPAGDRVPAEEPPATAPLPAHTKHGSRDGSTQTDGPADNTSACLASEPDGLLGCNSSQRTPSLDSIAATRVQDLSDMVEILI
UniProt Q9Y2J4: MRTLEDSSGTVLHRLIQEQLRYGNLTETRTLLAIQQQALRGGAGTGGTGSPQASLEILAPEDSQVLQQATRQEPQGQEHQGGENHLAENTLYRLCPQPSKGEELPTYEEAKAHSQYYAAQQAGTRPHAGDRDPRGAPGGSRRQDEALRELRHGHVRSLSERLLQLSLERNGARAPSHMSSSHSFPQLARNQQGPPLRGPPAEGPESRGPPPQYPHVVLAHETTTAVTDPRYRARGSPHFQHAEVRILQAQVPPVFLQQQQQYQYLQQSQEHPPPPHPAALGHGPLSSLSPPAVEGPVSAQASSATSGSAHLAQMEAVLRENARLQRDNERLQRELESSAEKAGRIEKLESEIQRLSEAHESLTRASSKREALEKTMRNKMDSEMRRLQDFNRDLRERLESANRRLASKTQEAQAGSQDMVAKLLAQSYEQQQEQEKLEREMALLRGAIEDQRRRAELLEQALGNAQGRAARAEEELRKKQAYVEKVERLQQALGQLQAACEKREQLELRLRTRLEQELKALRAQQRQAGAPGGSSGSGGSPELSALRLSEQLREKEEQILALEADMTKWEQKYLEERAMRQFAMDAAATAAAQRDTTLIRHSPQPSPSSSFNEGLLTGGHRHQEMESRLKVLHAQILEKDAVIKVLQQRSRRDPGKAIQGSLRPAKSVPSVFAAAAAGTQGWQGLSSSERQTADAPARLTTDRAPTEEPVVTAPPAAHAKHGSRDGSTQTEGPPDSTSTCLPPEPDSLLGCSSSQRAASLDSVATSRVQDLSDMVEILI
UniProt Q02248: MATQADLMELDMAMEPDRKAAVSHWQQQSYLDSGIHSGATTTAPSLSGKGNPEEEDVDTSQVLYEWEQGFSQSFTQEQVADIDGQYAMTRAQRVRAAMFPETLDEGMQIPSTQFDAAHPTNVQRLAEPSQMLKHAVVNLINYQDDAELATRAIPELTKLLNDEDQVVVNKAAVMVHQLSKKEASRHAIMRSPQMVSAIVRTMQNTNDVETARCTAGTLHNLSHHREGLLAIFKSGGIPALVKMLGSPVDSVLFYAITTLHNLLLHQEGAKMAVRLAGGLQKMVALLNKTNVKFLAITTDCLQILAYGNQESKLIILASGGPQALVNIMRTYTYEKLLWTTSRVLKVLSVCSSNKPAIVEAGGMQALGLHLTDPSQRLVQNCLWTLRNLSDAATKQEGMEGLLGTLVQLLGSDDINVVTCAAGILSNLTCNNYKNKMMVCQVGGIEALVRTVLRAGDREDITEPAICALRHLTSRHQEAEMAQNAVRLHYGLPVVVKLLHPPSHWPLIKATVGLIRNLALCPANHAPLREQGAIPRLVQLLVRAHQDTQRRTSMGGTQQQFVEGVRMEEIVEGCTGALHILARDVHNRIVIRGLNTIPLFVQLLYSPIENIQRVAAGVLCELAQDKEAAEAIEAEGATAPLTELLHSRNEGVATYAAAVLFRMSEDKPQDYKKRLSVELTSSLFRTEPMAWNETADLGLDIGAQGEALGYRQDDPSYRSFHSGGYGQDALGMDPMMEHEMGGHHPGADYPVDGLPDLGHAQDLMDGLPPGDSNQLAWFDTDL

Key:
[1] = target: AmotL2 (mouse, endogenous) (mouse (endogenous in MS1 cells, lung and aorta)) (UniProt Q8K371); assay: co-IP; mouse lung tissue lysate (1% Triton X-100 lysis buffer), IP with AmotL2 antibody or rabbit IgG, Protein G beads, western blot
[2] = target: AmotL2 (mouse, endogenous) (mouse (endogenous in MS1 cells, lung and aorta)) (UniProt Q8K371); assay: proximity ligation; PLA (NaveniFlex MR kit) with AmotL2 and p120 catenin antibodies on whole-mounted mouse descending aorta and inferior vena cava; amotl2 endothelial knockout tissue as control
[3] = target: AmotL2 (human, endogenous) (human (endogenous in HUVECs and HAoECs)) (UniProt Q9Y2J4); assay: co-IP; HUVEC lysate, static or after 96 h on an orbital shaker (300 r.p.m.), cells at the periphery of the dish harvested; IP with AmotL2 antibody, western blot

binding [1]: binds
Molecule: β-catenin (mouse, endogenous) (from UniProt Q02248 1-781)

binding [2]: binds
B1: p120 catenin (mouse, endogenous) (protein, UniProt P30999 1-938)
chain: MDDSEVESTASILASVKEQEAQFEKLTRALEEERRHVSAQLERVRVSPQDANSLMANGTLTRRHQNGRFVGDADLERQKFSDLKLNGPQDHNHLLYSTIPRMQEPGQIVETYTEEDPEGAMSVVSVETTDDGTTRRTETTVKKVVKTMTTRTVQPVPMGPDGLPVDASAVSNNYIQTLGRDFRKNGNGGPGPYVGQAGTATLPRNFHYPPDGYGRHYEDGYPGGSDNYGSLSRVTRIEERYRPSMEGYRAPSRQDVYGPQPQVRVGGSSVDLHRFHPEPYGLEDDQRSMGYDDLDYGMMSDYGTARRTGTPSDPRRRLRSYEDMIGEEVPPDQYYWAPLAQHERGSLASLDSLRKGMPPPSNWRQPELPEVIAMLGFRLDAVKSNAAAYLQHLCYRNDKVKTDVRKLKGIPILVGLLDHPKKEVHLGACGALKNISFGRDQDNKIAIKNCDGVPALVRLLRKARDMDLTEVITGTLWNLSSHDSIKMEIVDHALHALTDEVIIPHSGWEREPNEDCKPRHIEWESVLTNTAGCLRNVSSERSEARRKLRECDGLVDALIFIVQAEIGQKDSDSKLVENCVCLLRNLSYQVHREIPQAERYQEALPTVANSTGPHAASCFGAKKGKDEWFSRGKKPTEDPANDTVDFPKRTSPARGYELLFQPEVVRIYISLLKESKTPAILEASAGAIQNLCAGRWTYGRYIRSALRQEKALSAIAELLTSEHERVVKAASGALRNLAVDARNKELIGKHAIPNLVKNLPGGQQNSSWNFSEDTVVSILNTINEVIAENLEAAKKLRETQGIEKLVLINKSGNRSEKEVRAAALVLQTIWGYKELRKPLEKEGWKKSDFQVNLNNASRSQSSHSYDDSTLPLIDRNQKSDKKPDREEIPMSNMGSNTKSLDNNYSTLNERGDHNRTLDRSGDLGDMEPLKGAPLMQKI

binding [3]: binds
B2: VE-cadherin (human, endogenous) (protein, UniProt P33151 48-784)
chain: DWIWNQMHIDEEKNTSLPHHVGKIKSSVSRKNAKYLLKGEYVGKVFRVDAETGDVFAIERLDRENISEYHLTAVIVDKDTGENLETPSSFTIKVHDVNDNWPVFTHRLFNASVPESSAVGTSVISVTAVDADDPTVGDHASVMYQILKGKEYFAIDNSGRIITITKSLDREKQARYEIVVEARDAQGLRGDSGTATVLVTLQDINDNFPFFTQTKYTFVVPEDTRVGTSVGSLFVEDPDEPQNRMTKYSILRGDYQDAFTIETNPAHNEGIIKPMKPLDYEYIQQYSFIVEATDPTIDLRYMSPPAGNRAQVIINITDVDEPPIFQQPFYHFQLKENQKKPLIGTVLAMDPDAARHSIGYSIRRTSDKGQFFRVTKKGDIYNEKELDREVYPWYNLTVEAKELDSTGTPTGKESIVQVHIEVLDENDNAPEFAKPYQPKVCENAVHGQLVLQISAIDKDITPRNVKFKFILNTENNFTLTDNHDNTANITVKYGQFDREHTKVHFLPVVISDNGMPSRTGTSTLTVAVCKCNEQGEFTFCEDMAAQVGVSIQAVVAILLCILTITVITLLIFLRRRLRKQARAHGKSVPEIHEQLVTYDEEGGGEMDTTSYDVSVLNSVRRGGAKPPRPALDARPSLYAQVQKPPRHAPGAHGGPGEMAAMIEVKKDEADHDGDGPPYDTLHIYGYEGSESIAESLSSLGTDSSDSDVDYDFLNDWGPRFKMLAELYGSDPREELLY

binding [1]: binds
B3: VE-cadherin (mouse, endogenous) (protein, UniProt P55284 46-784)
chain: DWIWNQMHIDEEKNESLPHYVGKIKSNVNRQNAKYVLQGEFAGKIFGVDANTGNVLAYERLDREKVSEYFLTALIVDKNTNKNLEQPSSFTVKVHDINDNWPVFSHQVFNASVPEMSAIGTSVIRVTAVDADDPTVAGHATVLYQIVKGNEYFSIDNSGLIFTKIKNLDREKQAEYKIVVETQDALGLRGESGTATVMIRLEDINDNFPVFTQSTYTFSVPEDIRVGKPLGFLTVVDPDEPQNRMTKYSIMQGEYRDTFTIETDPKRNEGIIKPTKSLDYEVIQQYTFYIEATDPTIRYEYLSSTSGKNKAMVTINVLDVDEPPVFQRHFYHFKLPENQKKPLIGTVVAKDPDKAQRSIGYSIRKTSDRGQFFRITKQGNIYNEKELDRETYAWYNLTVEANELDSRGNPVGKESIVQVYIEVLDENDNPPEFAQPYEPKVCENAAQGKLVVQISATDKDVVPVNPKFKFALKNEDSNFTLINNHDNTANITVKYGQFNREHAKFHYLPVLISDNGVPSLTGTSTLTVGVCKCNEQGEFTFCEEMAAQAGVSIQALVAIFLCILTITVITLLIILRRRIRKQAHAHSKSALEIHEQLVTYDEEGGGEMDTTSYDVSVLNSVRGGSTKPLRSTMDARPAVYTQVQKPPRLAPGLHGGPREMATMIDVKKEEADNDGGGPPYDTLHIYGYEGAESIAESLSSLSTNSSDSDIDYDFLNDWGPRFKMLAELYGSDPQEELII
